{"source": "PubChem BioAssay AID504467", "about": "(National Center for Advancing Translational Sciences (NCATS), 2011)", "note": "The whole screen tested about 330,000 compounds, of which about 7,700 (2.3%) were called active. The shares of active, inactive and inconclusive entries below differ from those in the screen. Calls follow the shape of the dose curve; as a rule, active = well fitted inhibition curve with a large enough effect; inconclusive = small, poorly fitted or top-dose-only effect, or effect the other way; inactive = flat fitted curve, though single readings scatter. Where the call is inconclusive, the potency comes from a doubtful curve fit. % is scaled to controls: 0 for no effect and ±100 for the full control effect; potency is read from the fitted curve at half-maximal effect."}
{"test": "qHTS screen for small molecules that inhibit ELG1-dependent DNA repair in human embryonic kidney (HEK293T) cells expressing luciferase-tagged ELG1; also: nearly all actives have a fitted effect of over 55% in size", "conditions": "HEK293T ELG1-luciferase reporter, luminescence, 16 h, DNA damage induced by 5-fluorouridine; activity change, negative = inhibition: at 46.1 µM (top of the series)", "outline": "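Quantitative HTS, concentration-response format. 2,000 cells/well co-treated with 5-fluorouridine and compound, 16 hr in 5% CO2 at 37 °C; ONE-Glo luminescence read after 30 min.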"}
{"smiles": "CCc1ccc(NC(=O)CS(=O)CC(=O)Nc2ccc(N3CCOCC3)cc2)cc1", "note": "(stereo not drawn)", "activity change, negative = inhibition": "inactive: 11.2%"}
{"smiles": "COc1ccc(Cl)cc1NC(=O)c1ccc2c(SCC(=O)O)c3c(nc2c1)CCCC3", "activity change, negative = inhibition": "inactive: 10.3%"}
{"smiles": "COc1cccc2cc(C(=O)OCC(=O)NCc3ccc4c(c3)OCO4)c(=O)oc12", "Potency": "inconclusive: 16.4 µM [activator, partial curve]"}
{"smiles": "CN(C)c1nc(=NCc2ccco2)ss1", "Potency": "inconclusive: 32.6 µM [activator, single point]"}
{"smiles": "Cc1cccc(NC(=O)c2cc(-c3ccc(C)c(C)c3O)n[nH]2)c1", "Potency": "inconclusive: 20.6 µM [activator, partial curve]"}
{"smiles": "CCc1cccc(NC(=O)CS(=O)Cc2nc(-c3ccc(C)cc3)oc2C)c1", "note": "(stereo not drawn)", "Potency": "inconclusive: 29.1 µM [inhibitor, partial curve, poor fit]"}
{"smiles": "Nc1ccc2oc(-c3cccc(Br)c3)nc2c1", "Potency": "inconclusive: 5.8 µM [activator, partial curve]"}
{"smiles": "CC1CCN(S(=O)C23CC4CC(CC(C4)C2)C3)CC1", "note": "(stereo not drawn)", "activity change, negative = inhibition": "inactive: -8.04%"}
{"smiles": "COc1ccc(/C=N/NC(=O)c2cc(C)n(-c3ccccc3)c2C)cc1OC", "activity change, negative = inhibition": "inactive: -11.6%"}
{"smiles": "O=S(=O)(Nc1ccc(-c2nc3cccnc3s2)cc1)c1ccc(Cl)s1", "Potency": "inconclusive: 18.4 µM [activator, partial curve]"}
{"smiles": "COc1cc(Nc2nc3ccccc3nc2NS(=O)(=O)c2ccc([N+](=O)[O-])cc2)cc(OC)c1OC", "Potency": "active: 16.4 µM"}
{"smiles": "COc1ccc(N2CCn3c2nc2c3c(=O)n(CCCc3ccccc3)c(=O)n2C)cc1", "activity change, negative = inhibition": "inactive: 9.66%"}
{"smiles": "CCC(=O)Nc1cccc(NC(=S)NC(=O)c2ccccc2C)c1", "Potency": "inconclusive: 2.59 µM [activator, single point]"}
{"smiles": "O=C(CSc1ccc(F)cc1)Nc1ccc(Br)cc1", "Potency": "inconclusive: 29.1 µM [activator, single point]"}
{"smiles": "Cc1nn(Cc2ccccc2)c(Cl)c1/C=C1\\NC(=S)NC1=O", "Potency": "inconclusive: 14.6 µM [activator, partial curve, poor fit]"}
{"smiles": "COc1ccccc1NC(=O)CC1S/C(=N/N=C2\\CCCc3ccccc32)NC1=O", "note": "(stereo not drawn)", "Potency": "inconclusive: 20.6 µM [inhibitor, single point]"}
{"smiles": "O=C1Nc2ccccc2C1Cc1ccccc1", "note": "(stereo not drawn)", "Potency": "inconclusive: 29.1 µM [inhibitor, single point]"}
{"smiles": "Cc1ccc2[nH]c3c(c2c1)CC/C(=C/c1ccccc1)C3=O", "Potency": "inconclusive: 18.4 µM [activator, partial curve]"}
{"smiles": "COC(=O)N/N=C/c1ccc(OCCSc2ccc(Cl)cc2)c(OC)c1", "Potency": "inconclusive: 23.1 µM [inhibitor, single point]"}
{"smiles": "Cc1ccc(NC(=O)c2ccc3c(c2)OCCO3)cc1S(=O)(=O)Nc1cccc(Cl)c1", "Potency": "inconclusive: 29.1 µM [inhibitor, single point]"}
{"smiles": "CN(C)NC(=O)c1csnc1-c1c(Cl)cccc1Cl", "Potency": "inconclusive: 0.259 µM [activator, full curve, poor fit]"}
{"smiles": "COc1ccc(OCCN(C)CC(=O)Nc2ccccc2SC)cc1", "Potency": "inconclusive: 32.6 µM [inhibitor, single point]"}
{"smiles": "CCOC(=O)c1cnc(SCC(=O)Nc2cccc(OC)c2)nc1N", "Potency": "inconclusive: 18.4 µM [inhibitor, partial curve, poor fit]"}
{"smiles": "O=C(c1ccoc1)N1CCC2(CC1)Oc1ccc(F)cc1C(=O)C21CC(c2cccnc2)=NO1", "note": "(stereo not drawn)", "Potency": "inconclusive: 13 µM [inhibitor, partial curve]"}
{"smiles": "Cc1ccc(-c2[nH]c3ccccc3c2SCCNC(=O)c2cc3ccccc3oc2=O)cc1", "activity change, negative = inhibition": "inactive: -21.7%"}
{"smiles": "COc1cc(OC)cc(-c2c(-c3ccc(F)cc3)c3cc(-c4ccc5[nH]ccc5c4)ccc3n2C)c1", "activity change, negative = inhibition": "inactive: 2.22%"}
{"smiles": "COc1ccc(NC(=O)c2cc(CC(C)C)on2)cc1OC", "Potency": "inconclusive: 18.4 µM [activator, partial curve]"}
{"smiles": "Cc1ccc(N=C2C(=S)N(c3ccc(C)cc3)C(=N)N2/N=C/c2ccc(Cl)cc2)cc1", "Potency": "inconclusive: 29.1 µM [activator, single point]"}
{"smiles": "Cc1nn(CC2CC2)c(=O)n1-c1ccccc1", "Potency": "inconclusive: 6.51 µM [inhibitor, single point]"}
{"smiles": "COc1ccccc1/C=C/C(=O)NCCC1=CCCCC1", "Potency": "inconclusive: 9.2 µM [activator, partial curve]"}
{"smiles": "COc1ccc2cc(C(=O)C3CCCN(C(=O)CSc4nnc(C)o4)C3)ccc2c1", "note": "(stereo not drawn)", "Potency": "inconclusive: 18.3 µM [inhibitor, single point]"}
{"smiles": "O=C(Nc1cccc(NC(=O)c2ccc(-c3ccc(Br)cc3)o2)c1)c1ccccc1", "Potency": "active: 18.4 µM"}
{"smiles": "COc1ccc(S(=O)(=O)N2CCOCC2)cc1NC(=O)c1ccc(OC(F)F)cc1", "activity change, negative = inhibition": "inactive: -7.87%"}
{"smiles": "O=C1c2cccc3cccc(c23)C(=O)N1CCc1ccccc1", "Potency": "inconclusive: 5.17 µM [activator, partial curve]"}
{"smiles": "Oc1cc(NCc2cccnc2)ccc1-c1nc2ccccc2o1", "Potency": "inconclusive: 9.2 µM [activator, partial curve]"}
{"smiles": "O=C(c1cccc2ccccc12)N1CCN(c2ccc([N+](=O)[O-])c(N3CCOCC3)c2)CC1", "Potency": "inconclusive: 23.1 µM [inhibitor, partial curve]"}
{"smiles": "Cc1ccc(NC(=O)COC(=O)[C@@H]2CC(O)CN2S(=O)(=O)c2ccc3c(c2)OCCO3)cc1", "note": "(stereo partly drawn)", "Potency": "inconclusive: 23.1 µM [activator, single point]"}
{"smiles": "CCn1nc(NS(=O)(=O)c2ccc([N+](=O)[O-])cc2)c2cc3cc(C)ccc3nc21", "activity change, negative = inhibition": "inactive: 16.9%"}
{"smiles": "CCN(CC)CCNS(=O)(=O)c1ccc2[nH]cc(C(=O)O)c(=O)c2c1", "Potency": "inconclusive: 20.6 µM [activator, partial curve, poor fit]"}
{"smiles": "CCn1ncc(Br)c1C(=O)Nc1ccccc1OC", "activity change, negative = inhibition": "inactive: -12.5%"}
{"smiles": "O=C(c1nn2c(C(F)(F)F)cc(-c3cccs3)nc2c1Cl)N1CCCc2ccccc21", "Potency": "inconclusive: 20.6 µM [activator, single point]"}
{"smiles": "Cc1ccc(NC(=O)CN(C)C(=O)CSc2nc(C)cs2)cc1", "activity change, negative = inhibition": "inactive: 16.2%"}
{"smiles": "BrC(=C\\c1ccccc1)/C=N/Nc1ccc2nncn2n1", "Potency": "inconclusive: 29.1 µM [activator, single point]"}
